Reference: article PMC3715442

The chains behind the UniProt entries cited, without tags or fusion partners. Where a name states a change or a piece, a line headed by the entry shows the natural chain unless it says otherwise.
UniProt P05412, whole entry: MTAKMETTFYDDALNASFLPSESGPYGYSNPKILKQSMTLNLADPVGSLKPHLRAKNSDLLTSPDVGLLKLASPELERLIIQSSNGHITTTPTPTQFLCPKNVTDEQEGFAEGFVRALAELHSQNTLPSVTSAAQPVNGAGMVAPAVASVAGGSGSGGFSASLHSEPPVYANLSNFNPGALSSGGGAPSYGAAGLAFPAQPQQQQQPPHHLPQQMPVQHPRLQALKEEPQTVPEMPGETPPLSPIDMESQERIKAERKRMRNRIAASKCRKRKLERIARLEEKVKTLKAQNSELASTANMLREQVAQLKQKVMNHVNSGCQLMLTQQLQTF
UniProt P17535: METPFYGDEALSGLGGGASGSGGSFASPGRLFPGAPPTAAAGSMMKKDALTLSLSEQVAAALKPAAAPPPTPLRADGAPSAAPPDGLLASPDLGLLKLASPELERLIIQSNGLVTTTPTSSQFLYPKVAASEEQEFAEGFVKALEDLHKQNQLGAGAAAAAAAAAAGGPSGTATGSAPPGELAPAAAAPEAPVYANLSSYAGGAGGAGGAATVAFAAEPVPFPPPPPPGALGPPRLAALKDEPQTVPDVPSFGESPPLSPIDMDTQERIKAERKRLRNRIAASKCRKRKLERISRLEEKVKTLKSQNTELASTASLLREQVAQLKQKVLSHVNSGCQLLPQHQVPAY

What was measured:
c-Jun = c-Jun (UniProt P05412); assay: EMSA supershift; conditions: c-Jun antibody; 1x EMSA binding buffer (composition not given), 1 ug poly-dIdC, 10 ug nuclear extract, 2 ug antibody for supershift, room temperature 30 min, 4% TBE gel; protein in an extract; label: 32P 5' end (T4 PNK)
JunD = JunD (UniProt P17535); assay: EMSA supershift; conditions: JunD antibody; 1x EMSA binding buffer (composition not given), 1 ug poly-dIdC, 10 ug nuclear extract, 2 ug antibody for supershift, room temperature 30 min, 4% TBE gel; protein in an extract; label: 32P 5' end (T4 PNK)

ACTTCGGTGACTTCATCCACC (double strand) [rs12190287-C]
binding result (c-Jun): binds
binding result (JunD): binds

Construct, isoform or probe ends are uncertain for at least one entry. Results from cells or extracts need not show a direct contact. At least one verdict rests on a figure or table, not on a statement of the authors.
